These are yes or no findings as the source states them, for the method shown. Binding seen in cells or lysates may run through a third protein. Some results given as binding are weak or reduced against the parent protein; the word gives no strength. Where a sequence is shown, tags or fusion partners need not be part of it.
Assays:
[1] = molecular target: T1, mouse TOMT with a C-terminal HA tag (TOMT-HA) (mouse) (UniProt A1Y9I9); experiment: co-IP; HEK293 cells co-transfected, lysed after 48 hr in CoIP buffer (50 mM HEPES pH 7.5, 50-300 mM NaCl, 1.5 mM MgCl2, 10% glycerol, 1% Triton X-100, 1 mM EDTA); IP 1 hr at 4°C with HA affinity gel (Figure 8A,B,E) or Flag M2 affinity gel (Figure 8C,D), Western blot
T1 sequence: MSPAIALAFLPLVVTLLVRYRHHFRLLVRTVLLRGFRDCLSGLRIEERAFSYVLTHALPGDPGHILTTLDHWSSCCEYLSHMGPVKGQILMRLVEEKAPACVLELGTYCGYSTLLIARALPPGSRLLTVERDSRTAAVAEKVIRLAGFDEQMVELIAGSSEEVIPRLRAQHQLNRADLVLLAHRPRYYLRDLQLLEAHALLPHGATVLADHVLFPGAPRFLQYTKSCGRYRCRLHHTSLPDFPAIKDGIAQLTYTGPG

[2] = molecular target: T2, mouse TOMT with a C-terminal FLAG tag (TOMT-FLAG) (mouse) (UniProt A1Y9I9); experiment: as above
T2 sequence: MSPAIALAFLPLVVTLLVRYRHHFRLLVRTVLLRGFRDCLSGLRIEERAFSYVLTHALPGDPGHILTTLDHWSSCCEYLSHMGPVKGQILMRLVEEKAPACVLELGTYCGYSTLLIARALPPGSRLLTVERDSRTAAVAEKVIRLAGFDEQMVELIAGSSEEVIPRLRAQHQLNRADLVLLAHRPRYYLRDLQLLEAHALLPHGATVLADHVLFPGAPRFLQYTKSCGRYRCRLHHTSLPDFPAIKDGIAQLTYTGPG

B1: Myc-TMC1 (protein, UniProt Q8R4P5 1-757)
chain: MLQIQVEEKEEDTEESSSEEEEDKLPRRESLRPKRKRTRDVINEDDPEPEPEDEETRKAREKERRRRLRRGAEEEEEIDEEELERLKALLDENRQMIATVKCKPWKMEKKIEVLKEAKKFVSENEGALGKGKGKKWFAFKMMMAKKWAKFLRDFENFKAACVPWENKIKAIESQFGSSVASYFLFLRWMYGVNMVLFVLTFSLIMLPEYLWGLPYGSLPRKTVPRAEEASAANFGVLYDFNGLAQYSVLFYGYYDNKRTIGWLNFRLPLSYFLVGIMCIGYSFLVVLKAMTKNIGDDGGGDDNTFNFSWKVFCSWDYLIGNPETADNKFNSITMNFKEAIIEERAAQVEENIHLIRFLRFLANFFVFLTLGASGYLIFWAVKRSQEFAQQDPDTLGWWEKNEMNMVMSLLGMFCPTLFDLFAELEDYHPLIALKWLLGRIFALLLGNLYVFILALMDEINNKIEEEKLVKANITLWEANMIKAYNESLSGLSGNTTGAPFFVHPADVPRGPCWETMVGQEFVRLTVSDVLTTYVTILIGDFLRACFVRFCNYCWCWDLEYGYPSYTEFDISGNVLALIFNQGMIWMGSFFAPSLPGINILRLHTSMYFQCWAVMCCNVPEARVFKASRSNNFYLGMLLLILFLSTMPVLYMIVSLPPSFDCGPFSGKNRMFEVIGETLEHDFPSWMAKILRQLSNPGLVIAVILVMVLTIYYLNATAKGQKAANLDLKKKMKQQALENKMRNKKMAAARAAAAAGGQ
In the case of B1, the binding [1] is reported as “binds”.

B2: Myc-TMC2 (protein, UniProt Q8R4P4 1-888)
chain: MSPQLKSLDEEGDKSARRPTRKQTSRAACPQDGHRAQSSRKDPAKGSPRPGSSRKKQMEHGSYHKGLQGQKPRKVERSLQGRKKDRRTSLKEQRASPKKEREALRKEAGKQLRKPRSTSLGSSVSTGDSLSEEELAQILEQVEEKKKLITTVRNKPWPMAKKLRELREAQAFVEKYEGALGKGKGKHLYAYRMMMAKKWVKFKRDFDNFKTQCIPWEMKIKDIESHFGSSVASYFIFLRWMYGVNLVLFGLIFGLVIIPEVLMGMPYGSIPRKTVPRAEEERAMDFSVLWDFEGYIKYSALFYGYYNNQRTIGWLRYRLPMAYFMVGVSVFGYSLMIVIRSMASNTQGSTSEGDSDSFTFSFKMFTSWDYLIGNSETADNKYVSITTSFKESIVDEQESNKEGNIHLTRFLRVLANFLILCCLCGSGYLIYFVVKRSQEFSKMQNVSWYERNEVEIVMSLLGMFCPPLFETIAALENYHPRTGLKWQLGRIFALFLGNLYTFLLALMDDVHLKLSNEEKIKNITHWTLFNYYNSSGGNESVPRPPPHPADVPRGSCWETAVGIEFMRLTVSDMLVTYLTILVGDFLRACFVRFMNHCWCWDLEAGFPSYAEFDISGNVLGLIFNQGMIWMGSFYAPGLVGINVLRLLTSMYFQCWAVMSSNVPHERVFKASRSNNFYMGLLLLVLFLSLLPVAYTVMSLPPSFDCGPFSGKNRMYDVLHETIENDFPKFLGKIFAFLANPGLIIPAILLMFLAIYYLNSVSKSLSRANAQLRKKIQALREVEKNHKSIKGKAIVTYSEDTIKNSSKNATQIHLTKEEPTSHSSSQIQTLDKKAQGPHTSSTEGGASPSTSWHHVGSQPPRGRRDSGQPQSQTYTGRSPSGKRTQRPHN
With B2 the binding [1] was “binds”.

B3: TMIE-HA (protein, UniProt Q8K467 29-153)
chain: QLVEPSTAPPKPKPPPLTKETVVFWDMRLWHVVGIFSLFVLSIIITLCCVFNCRVPRTRKEIEARYLQRKAAKMYTDKLETVPPLNELTEIPGEDKKKKKKDSVDTVAIKVEEDEKNEAKKKGEK
B3 was tested, and the binding [2] was “binds”.
